According to publication PMC4423959, “The Nucleoid Occlusion SlmA Protein Accelerates the Disassembly of the FtsZ Protein Polymers without Affecting Their GTPase Activity” (PLoS ONE, 2015):
Results are given in words; binding and its absence hold for the method and conditions named. Some results given as binding are weak or reduced against the parent protein; the word gives no strength.

Legend:
[1] = biological target: T1, SlmA·SBS complex (four SlmA monomers, as two dimers, bound to one SBScons DNA) (E. coli) (UniProt P0C093); experiment: SEC-MALS; FtsZ-GDP with SlmA·SBS, 300 mM KCl and neutral pH; data not shown; both purified
T1 sequence: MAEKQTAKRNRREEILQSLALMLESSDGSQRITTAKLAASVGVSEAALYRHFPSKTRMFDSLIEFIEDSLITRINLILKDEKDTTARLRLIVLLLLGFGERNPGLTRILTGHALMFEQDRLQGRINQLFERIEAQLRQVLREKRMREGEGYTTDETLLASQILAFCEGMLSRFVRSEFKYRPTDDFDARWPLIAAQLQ

[2] = biological target: T1, SlmA·SBS complex (four SlmA monomers, as two dimers, bound to one SBScons DNA) (E. coli); experiment: AUC; sedimentation velocity, 48,000 rpm, 20°C, working buffer (50 mM Tris-HCl, 300 mM KCl, 2 mM MgCl2, pH 7.5); FtsZ-GDP 30 μM total with 6 μM FtsZ-Alexa 488 as tracer, without or with SlmA 15 μM and SBScons 4 μM; both purified

B1: E. coli FtsZ (natural protein, UniProt P0A9A6 1-383, looked up)
chain: MFEPMELTNDAVIKVIGVGGGGGNAVEHMVRERIEGVEFFAVNTDAQALRKTAVGQTIQIGSGITKGLGAGANPEVGRNAADEDRDALRAALEGADMVFIAAGMGGGTGTGAAPVVAEVAKDLGILTVAVVTKPFNFEGKKRMAFAEQGITELSKHVDSLITIPNDKLLKVLGRGISLLDAFGAANDVLKGAVQGIAELITRPGLMNVDFADVRTVMSEMGYAMMGSGVASGEDRAEEAAEMAISSPLLEDIDLSGARGVLVNITAGFDLRLDEFETVGNTIRAFASDNATVVIGTSLDPDMNDELRVTVVATGIGMDKRPEITLVTNKQVQQPVMDRYQQHGMAPLTQEQKPVAKVVNDNAPQTAKEPDYLDIPAFLRKQAD
notes: Cell division protein FtsZ of E. coli; The nucleotide state (GDP: oligomers); In AUC and FCS a tracer share of FtsZ labelled on amine groups with Alexa Fluor 488 (FtsZ-Alexa 488) was mixed with unlabelled FtsZ; also called FtsZ-GDP; FtsZ-GTP; source: isolated as described elsewhere [40]
B1 was tested, and the binding [1] was “binds” and the binding [2] was “binds”.
